{"source": "paper PMC5680816", "binders": {"B1": {"name": "Gal4 AD-Csm1 (protein, UniProt P25651 1-190)", "chain": "MDPLTVYKNSVKQQIDSADLLVANLVNENFVLSEKLDTKATEIKQLQKQIDSLNAQVKELKTQTSQQAENSEVIKDLYEYLCNVRVHKSYEDDSGLWFDISQGTHSGGSSDDYSIMDYKLGFVKGQAQVTEVIYAPVLKQRSTEELYSLQSKLPEYLFETLSFPLSSLNQFYNKIAKSLNKKREKKDETE"}}, "molecular_target": "T1, Gal4 BD-Dsn1 (yeast) (UniProt P40568)", "T1 sequence": "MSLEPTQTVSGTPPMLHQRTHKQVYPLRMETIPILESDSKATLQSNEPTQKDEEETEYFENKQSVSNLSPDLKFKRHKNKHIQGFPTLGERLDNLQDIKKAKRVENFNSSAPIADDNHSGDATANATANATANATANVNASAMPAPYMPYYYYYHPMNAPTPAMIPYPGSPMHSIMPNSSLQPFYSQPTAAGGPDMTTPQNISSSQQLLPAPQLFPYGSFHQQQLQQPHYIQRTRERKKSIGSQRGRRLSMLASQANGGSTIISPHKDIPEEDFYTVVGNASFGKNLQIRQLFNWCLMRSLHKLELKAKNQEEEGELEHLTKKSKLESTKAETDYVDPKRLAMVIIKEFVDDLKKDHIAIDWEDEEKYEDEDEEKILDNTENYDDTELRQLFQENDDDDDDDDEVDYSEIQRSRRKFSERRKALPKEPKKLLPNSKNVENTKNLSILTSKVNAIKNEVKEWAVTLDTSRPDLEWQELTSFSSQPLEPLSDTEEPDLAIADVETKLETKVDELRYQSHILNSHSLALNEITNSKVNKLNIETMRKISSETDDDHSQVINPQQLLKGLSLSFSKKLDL", "assay": "two-hybrid; Gal4 AD and Gal4 BD fusions in AH109 or its derivatives (ABC3Δ, ABC9Δ, single deletions); growth in selective medium (SD-Leu-Trp-His-Ade), 30 °C; DMSO, or nutlin in panels where growth was kept", "note": "No constants are given. Whether binding was seen depends on the method and setting. Some entries that bind do so weakly or less than the wild type. Sequences can lack the tags named with a protein."}
{"binder": "B1", "values": [{"measurement": "binding", "result": "binds"}]}
